The list is a part of this screen's results and no random one: it is rich in T/C values a quarter to a half above the control, in often repeated tests (any T/C) and in doses without a T/C. Further doses and runs are listed elsewhere. T/C gives the treated animals as a percentage of the vehicle group. Some doses have a count of surviving animals in place of a T/C: the source holds a T/C of zero for them, seemingly a mark for toxic or unscored doses. Some doses without a T/C left all or most animals alive at the check, yet need not have been tolerated: the source hardly ever lists a survival T/C far under the control, and the zero likely stands for such cases as well. Counts of survivors are from the toxicity check (mostly the fifth day) where no day follows; animals may have died later. Schedules are NCI's codes, taken here to give the interval after Q, in days (D) or hours (H), and the number of doses after X. Some doses were run more than once; the results are listed from low to high. For survival time, the PubChem record calls one and a half times the control and up active, and a quarter to a half above the control has no call in these data; cut-offs in other NCI protocols can differ. Some T/C values are followed by the survivors on the day toxicity was checked, most often the fifth; where none is given, no animal had died by that day. Signs of the kind (2×) stand for listed records that agree.
Tested on: CD2F1 mice, L1210 leukemia ip, survival T/C
Experiment: NCI In Vivo Anticancer Drug Screen. Data for tumor model L1210 Leukemia (intraperitoneal) in CD2F1 (CDF1) mice
Conditions: higher T/C = longer survival
Procedure, shortened: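 In this screen, transplantable tumors were grown in mice given either the compound or its vehicle. Results were expressed as the treated measurement relative to the control measurement.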

[1] = T/C endpoint: mean survival time, dose: 200.0 mg/kg/injection, schedule: Q01DX009 (ip), vehicle: saline with Tween-80
[2] = T/C endpoint: mean survival time, dose: 400.0 mg/kg/injection, schedule: Q01DX009 (ip), vehicle: saline with Tween-80
[3] = T/C endpoint: mean survival time, dose: 100.0 mg/kg/injection, schedule: Q04DX002 (ip), vehicle: saline with Tween-80
[4] = T/C endpoint: mean survival time, dose: 200.0 mg/kg/injection, schedule: Q04DX002 (ip), vehicle: saline with Tween-80
[5] = T/C endpoint: mean survival time, dose: 6.25 mg/kg/injection, schedule: Q01DX009 (ip), vehicle: saline with Tween-80

## CC(C)OC(=O)C#CC(=O)O
T/C endpoint: mean survival time, dose: 100.0 mg/kg/injection, schedule: Q01DX001 (ip), vehicle: saline
  survivor count: 2 of 6

## O=C[C@@H](CO)O[C@H](C=O)n1cnc2c(=O)[nH]cnc21
T/C endpoint: mean survival time, dose: 40.0 mg/kg/injection, schedule: Q01DX009 (ip), vehicle: saline
  T/C: 127 % of control
T/C endpoint: mean survival time, dose: 50.0 mg/kg/injection, schedule: Q01DX007 (ip), vehicle: saline
  T/C: 136 % of control
T/C endpoint: mean survival time, dose: 50.0 mg/kg/injection, schedule: Q01DX009 (ip), vehicle: saline
  T/C: 136 % of control
T/C endpoint: mean survival time, dose: 50.0 mg/kg/injection, schedule: Q03DX003 (ip), vehicle: saline
  T/C: 130 % of control
T/C endpoint: mean survival time, dose: 80.0 mg/kg/injection, schedule: Q01DX009 (ip), vehicle: saline
  T/C: 135 % of control
T/C endpoint: mean survival time, dose: 100.0 mg/kg/injection, schedule: Q01DX009 (ip), vehicle: saline
  T/C: 148 % of control
T/C endpoint: mean survival time, dose: 100.0 mg/kg/injection, schedule: Q03DX003 (ip), vehicle: saline
  T/C: 148 % of control
T/C endpoint: mean survival time, dose: 100.0 mg/kg/injection, schedule: Q04DX003 (ip), vehicle: saline
  T/C: 143 % of control [5 of 6 alive]
T/C endpoint: mean survival time, dose: 280.0 mg/kg/injection, schedule: Q01DX001 (ip), vehicle: saline
  T/C: 141 % of control
T/C endpoint: mean survival time, dose: 320.0 mg/kg/injection, schedule: Q01DX009 (ip), vehicle: saline
  survivor count: 4 of 8 and 5 of 6
T/C endpoint: mean survival time, dose: 560.0 mg/kg/injection, schedule: Q01DX001 (ip), vehicle: saline
  survivor count: 2 of 7
T/C endpoint: median survival time, dose: 39.0 mg/kg/injection, schedule: Q01DX009 (ip), vehicle: sodium bicarbonate
  T/C: 128 % of control
T/C endpoint: median survival time, dose: 59.0 mg/kg/injection, schedule: Q01DX009 (ip), vehicle: clinical formulation
  T/C: 130 % of control
T/C endpoint: median survival time, dose: 59.0 mg/kg/injection, schedule: Q01DX009 (ip), vehicle: sodium bicarbonate
  T/C: 135 % of control
T/C endpoint: median survival time, dose: 64.8 mg/kg/injection, schedule: Q01DX005 (ip), vehicle: saline
  T/C: 125 % of control
T/C endpoint: median survival time, dose: 65.0 mg/kg/injection, schedule: Q01DX009 (ip), vehicle: water
  T/C: 131, 137, 143, 150, 156, 168, 175 % of control
T/C endpoint: median survival time, dose: 100.0 mg/kg/injection, schedule: Q01DX005 (ip), vehicle: distilled water + Tween-80
  T/C: 142 % of control
T/C endpoint: median survival time, dose: 108.0 mg/kg/injection, schedule: Q01DX005 (ip), vehicle: saline
  T/C: 139 % of control
T/C endpoint: median survival time, dose: 108.0 mg/kg/injection, schedule: Q01DX009 (ip), vehicle: water
  T/C: 162, 168, 175 (2×), 181, 181 [7 of 8 alive], 187 % of control
T/C endpoint: median survival time, dose: 180.0 mg/kg/injection, schedule: Q01DX009 (ip), vehicle: water
  T/C: 112 [6 of 8 alive], 118 (2×), 137, 175, 193, 218 % of control
T/C endpoint: median survival time, dose: 200.0 mg/kg/injection, schedule: Q01DX009 (ip), vehicle: clinical formulation
  survivor count: 5 of 10
T/C endpoint: median survival time, dose: 200.0 mg/kg/injection, schedule: Q01DX009 (ip), vehicle: sodium bicarbonate
  survivor count: 3 of 10
T/C endpoint: median survival time, dose: 300.0 mg/kg/injection, schedule: Q01DX009 (ip), vehicle: clinical formulation
  survivor count: 0 of 10
T/C endpoint: median survival time, dose: 300.0 mg/kg/injection, schedule: Q01DX009 (ip), vehicle: sodium bicarbonate
  survivor count: 0 of 10
T/C endpoint: median survival time, dose: 300.0 mg/kg/injection, schedule: Q01DX009 (ip), vehicle: water
  survivor count: 0 of 8, 1 of 8, 2 of 8, 3 of 8
T/C endpoint: median survival time, dose: 400.0 mg/kg/injection, schedule: Q01DX005 (ip), vehicle: distilled water + Tween-80
  survivor count: 2 of 6

## COP12(OCCO1)SC(C(F)(F)F)=C(C(F)(F)F)S2
T/C endpoint: mean survival time, dose: 50.0 mg/kg/injection, schedule: Q01DX009 (ip), vehicle: saline with Tween-80
  survivor count: 0 of 10
T/C endpoint: mean survival time, dose: 100.0 mg/kg/injection, schedule: Q01DX009 (ip), vehicle: saline with Tween-80
  survivor count: 0 of 10 and 0 of 6
[1]
  survivor count: 0 of 10 and 0 of 6
[2]
  survivor count: 0 of 10 and 0 of 6

## Fc1ccc(N2CCNCC2)cc1
T/C endpoint: mean survival time, dose: 100.0 mg/kg/injection, schedule: Q04DX003 (ip), vehicle: saline with Tween-80
  survivor count: 2 of 6
T/C endpoint: mean survival time, dose: 200.0 mg/kg/injection, schedule: Q04DX003 (ip), vehicle: saline with Tween-80
  survivor count: 0 of 6
T/C endpoint: mean survival time, dose: 400.0 mg/kg/injection, schedule: Q04DX003 (ip), vehicle: saline with Tween-80
  survivor count: 0 of 6

## COc1cccc2c1C(=O)c1c(O)c3c(c(O)c1C2=O)CC(O)(/C(C)=N/NC(=O)CCCC(=O)N/N=C(\C)C1(O)Cc2c(O)c4c(c(O)c2C(OC2CC(N)C(O)C(C)O2)C1)C(=O)c1c(OC)cccc1C4=O)CC3OC1CC(N)C(O)C(C)O1 (configuration not stated)
T/C endpoint: mean survival time, dose: 6.25 mg/kg/injection, schedule: Q01DX009 (ip), vehicle: water
  survivor count: 0 of 6

## Clc1ccc(CC[PH+]2CC=CC2)cc1.Clc1ccc(CC[PH+]2CC=CC2)cc1.[Cl][Ni][Cl]
T/C endpoint: mean survival time, dose: 50.0 mg/kg/injection, schedule: Q01DX009 (ip), vehicle: DMSO
  survivor count: 3 of 3
[3]
  survivor count: 0 of 3

## CCCCS/C=C\C(=O)OCC
[4]
  survivor count: 2 of 3

## CCCCC[CH2][Sn]([I])([CH2]C)[CH2]C
[5]
  survivor count: 2 of 6
T/C endpoint: mean survival time, dose: 12.5 mg/kg/injection, schedule: Q01DX009 (ip), vehicle: saline with Tween-80
  survivor count: 0 of 6
T/C endpoint: mean survival time, dose: 25.0 mg/kg/injection, schedule: Q01DX009 (ip), vehicle: saline with Tween-80
  survivor count: 0 of 6
T/C endpoint: mean survival time, dose: 25.0 mg/kg/injection, schedule: Q04DX002 (ip), vehicle: saline with Tween-80
  survivor count: 0 of 3
T/C endpoint: mean survival time, dose: 50.0 mg/kg/injection, schedule: Q04DX002 (ip), vehicle: saline with Tween-80
  survivor count: 0 of 3
[3]
  survivor count: 0 of 3

## CCOC(=O)N(Cl)Cl
T/C endpoint: mean survival time, dose: 25.0 mg/kg/injection, schedule: Q04DX003 (ip), vehicle: saline
  survivor count: 1 of 3
T/C endpoint: mean survival time, dose: 50.0 mg/kg/injection, schedule: Q04DX003 (ip), vehicle: saline
  survivor count: 0 of 3

## O=C(Oc1ccc(O)cc1)N(c1cccc2ccccc12)c1cccc2ccccc12
[4]
  survivor count: 3 of 3

## Clc1ccc(COCc2ccccc2Cn2ccnc2)cc1
[1]
  survivor count: 3 of 6
[2]
  survivor count: 0 of 6

## OCC(F)(F)F
T/C endpoint: mean survival time, dose: 200.0 mg/kg/injection, schedule: Q01DX009 (ip), vehicle: saline
  survivor count: 3 of 6
T/C endpoint: mean survival time, dose: 400.0 mg/kg/injection, schedule: Q01DX009 (ip), vehicle: saline
  survivor count: 0 of 6

## O=C1CCCCC1C(=O)C(F)(F)F (configuration not stated)
T/C endpoint: mean survival time, dose: 255.0 mg/kg/injection, schedule: Q01DX009 (ip), vehicle: saline with Tween-80
  survivor count: 6 of 6
T/C endpoint: mean survival time, dose: 385.0 mg/kg/injection, schedule: Q01DX009 (ip), vehicle: saline with Tween-80
  survivor count: 2 of 6

## Cc1ccc2[nH]c(=O)[nH]c(=O)c2n1
T/C endpoint: mean survival time, dose: 300.0 mg/kg/injection, schedule: Q01DX001 (ip), vehicle: other
  survivor count: 1 of 6

## COc1cccc2c1C(=O)c1c(OC)c(CBr)cc(OC)c1C2=O
T/C endpoint: mean survival time, dose: 200.0 mg/kg/injection, schedule: Q01DX005 (ip), vehicle: other
  survivor count: 5 of 6

## CCOC(=O)c1cc(C)nc2c(Cl)cc(Cl)cc12
[2]
  survivor count: 5 of 6

## Cn1cnc([N+](=O)[O-])c1Sc1ncn[nH]1
T/C endpoint: mean survival time, dose: 200.0 mg/kg/injection, schedule: Q01DX009 (ip), vehicle: suspension in saline
  survivor count: 3 of 6
T/C endpoint: mean survival time, dose: 400.0 mg/kg/injection, schedule: Q01DX009 (ip), vehicle: suspension in saline
  survivor count: 2 of 6

## O=C1C2C3C=CC(C2C(=O)N1CO)C1C2C(=O)N(CO)C(=O)C2C31 (configuration not stated)
T/C endpoint: median survival time, dose: 18.0 mg/kg/injection, schedule: Q01DX009 (ip), vehicle: water
  T/C: 140 % of control
T/C endpoint: median survival time, dose: 30.0 mg/kg/injection, schedule: Q01DX009 (ip), vehicle: water
  T/C: 142 % of control
T/C endpoint: median survival time, dose: 100.0 mg/kg/injection, schedule: Q01DX009 (ip), vehicle: water
  survivor count: 0 of 6
T/C endpoint: median survival time, dose: 138.9 mg/kg/injection, schedule: Q01DX009 (ip), vehicle: water
  survivor count: 0 of 3

## CCCCCC(C[N+](C)(C)C)C(=O)/C=C/c1ccc(Cl)cc1 (configuration not stated)
T/C endpoint: mean survival time, dose: 100.0 mg/kg/injection, schedule: Q01DX009 (ip), vehicle: Klucel (hydroxypropylcellulose) (HPC)
  survivor count: 0 of 6

## CCOc1ccc(Br)cc1/C=C(\C#N)c1ccc([N+](=O)[O-])cc1
T/C endpoint: mean survival time, dose: 0.78 mg/kg/injection, schedule: Q01DX009 (ip), vehicle: saline with Tween-80
  survivor count: 6 of 6
T/C endpoint: mean survival time, dose: 1.56 mg/kg/injection, schedule: Q01DX009 (ip), vehicle: saline with Tween-80
  survivor count: 6 of 6
T/C endpoint: mean survival time, dose: 3.13 mg/kg/injection, schedule: Q01DX009 (ip), vehicle: saline with Tween-80
  survivor count: 6 of 6
[5]
  survivor count: 6 of 6
